{
  "source": "patent US6013278A",
  "about": "(priority 1997, dated 2000)",
  "origin": "cited, not measured here",
  "details": "cited from earlier work",
  "note": "At least one read-out could not be matched to a standard name with certainty.",
  "data": [
    {"smiles": "O=C1CCC(NC(=O)Cc2ccccc2)C(=O)N1", "note": "(stereo not shown) [CN, 3-phenylacetyl-amino-2,6, piperidinedione]", "values": [
      {"measurement": "highest testable concentration limited by solubility", "value": "~ 0.8 mM"}
    ]}
  ]
}
